Where “and” joins values, the source holds several entries; their conditions need not be identical. Equal values may be shown once. In all, about 350,000 compounds went through this assay and about 1,200 (0.34%) were called active. This list was built around the results that the source calls inconclusive (neither active nor inactive); the mix of calls is not that of the screen. Calls follow the shape of the dose curve; as a rule, active = well fitted inhibition curve with a large enough effect; inconclusive = small, poorly fitted or top-dose-only effect; inactive = no such curve, though single readings can be large or run the other way. Where the call is inconclusive, the potency comes from a doubtful curve fit. Some compounds were tested as several samples or in several runs, with calls that do not always agree.
Target: DNA repair nuclease/redox regulator APEX1 (Homo sapiens) (UniProt P27695)
Experiment: qHTS Assay for Inhibitors of the Human Apurinic/apyrimidinic Endonuclease 1 (APE1); also: nearly all actives have a fitted effect of over 55% in size;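 as to activity change, negative = inhibition: plate controls were vehicle for no effect and reference inhibitor for full effect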
Conditions: recombinant APE1, TAMRA/BHQ-2 abasic DNA cleavage fluorescence; activity change, negative = inhibition: at 65.8 µM (top of the series)
Summary of the method: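 Compound pre-exposure to 0.75 nM APE1, 15 min at ambient temperature. Reaction initiated with 50 nM TAMRA/BHQ-2 THF substrate, read immediately in kinetic mode, 525 nm excitation, 598 nm emission.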
Potency is read from the fitted curve at half-maximal effect.

Chains of the proteins cited; added tags and fusions are not shown.
UniProt P27695, whole entry, looked up: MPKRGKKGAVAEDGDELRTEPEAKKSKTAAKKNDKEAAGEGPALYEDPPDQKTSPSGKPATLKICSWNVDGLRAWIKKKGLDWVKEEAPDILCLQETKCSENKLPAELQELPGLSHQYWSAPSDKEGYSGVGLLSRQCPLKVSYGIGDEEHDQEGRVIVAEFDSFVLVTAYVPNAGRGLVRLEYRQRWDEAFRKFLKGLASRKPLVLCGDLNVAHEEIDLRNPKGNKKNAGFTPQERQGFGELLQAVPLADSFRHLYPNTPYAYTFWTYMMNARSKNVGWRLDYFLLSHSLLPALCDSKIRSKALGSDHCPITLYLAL

Question: Cc1cccc2cc(C3CC(c4ccco4)=NN3S(C)(=O)=O)c(Cl)nc12 (stereo not given) was tested. Which Potency did it give?
Answer: inconclusive: 44.7 µM [inhibitor, partial curve, poor fit]

Question: For COc1ccc(-c2nc(-c3cccs3)c(-c3cccs3)[nH]2)cc1OC, which “activity change, negative = inhibition” value is on record?
Answer: inactive: -2.71%

Question: N#Cc1c(N)oc(-c2ccco2)c1-c1ccco1 was tested. Which Potency did it give?
Answer: inconclusive: 12.6 µM [inhibitor, partial curve, poor fit]

Question: Which Potency does the source give for COc1ccc(N2CCN(Cc3ccc(Br)s3)CC2)cc1 here?
Answer: inconclusive: 3.16 µM [inhibitor, partial curve, poor fit]

Question: O=S(=O)(c1ccc(-n2cnnn2)cc1)N1CCC(N2CCCCC2)CC1 was tested. Which Potency did it give?
Answer: inconclusive: 25.1 µM [inhibitor, single point]

Question: With O=C(OCC(=O)C12CC3CC(CC(C3)C1)C2)c1ccc(O)cc1O as the compound, how does the Potency read?
Answer: inconclusive: 23.8 µM [inhibitor, single point]

Question: COc1ccc(-n2nnnc2SCC(=O)c2ccc(O)c(O)c2)cc1 was tested. Which Potency did it give?
Answer: inconclusive: 17.8 µM [inhibitor, partial curve]

Question: Which Potency does the source give for CCCCN(CC)CCCNC(=O)c1cc2c(=O)n(C)c3ccccc3c2n1C here?
Answer: inconclusive: 50.1 µM [inhibitor, partial curve, poor fit]

Question: With CCCCOC(=O)c1c(C)oc2ccc(NS(=O)(=O)c3ccc4c5c(cccc35)C(=O)N4)cc12 as the compound, how does the Potency read?
Answer: inconclusive: 28.2 µM [inhibitor, partial curve]

Question: With N#Cc1c(NC(=O)CSc2ncn[nH]2)sc2c1CCCCC2 as the compound, how does the Potency read?
Answer: inconclusive: 4.47 µM [inhibitor, single point]

Question: How did the Potency turn out when O=C(C/C=N/OCc1ccc(F)cc1Cl)c1cnc(-c2ccccc2)s1 was run?
Answer: inconclusive: 39.8 µM [inhibitor, single point]

Question: Oc1ccc(Nc2nc(-c3ccc4ccccc4c3)cs2)cc1 was tested. Which “activity change, negative = inhibition” value did it give?
Answer: inactive: -0.773%

Question: With O=C(OC(C(=O)NCC1CCCO1)c1ccccn1)c1cccs1 (stereo not given) as the compound, how does the Potency read?
Answer: inconclusive: 1 µM [inhibitor, full curve]

Question: Which Potency does the source give for O=C(O)CC[C@@H](C(=O)O)N1C(=O)c2ccccc2C1=O here?
Answer: inconclusive: 31.6 µM [inhibitor, partial curve]

Question: CC(=O)Nc1cc(OC(C)=O)c2nonc2c1OC(C)=O was tested. Which Potency did it give?
Answer: inconclusive: 35.5 µM [inhibitor, partial curve, poor fit]

Question: O=C1COc2ccc(C(=O)COC(=O)CNC(=O)C3CCCCC3)cc2N1 was tested. Which Potency did it give?
Answer: inconclusive: 8.91 µM [inhibitor, single point]

Question: Which Potency does the source give for CC1(OC(=O)c2ccc(Cl)nc2)C(=O)C=C2C=C3CCCN3C=C2C1=O (stereo not given) here?
Answer: inconclusive: 14.1 µM [inhibitor, partial curve] and inconclusive: 3.98 µM [inhibitor, single point]

Question: How did the Potency turn out when CCOC(=O)Nc1ccc2ncn(C)c(=O)c2c1 was run?
Answer: inconclusive: 8.91 µM [inhibitor, single point]

Question: For Cc1ccc(NC(=O)CSCC(=O)Nc2ncc3c(n2)CC(c2ccco2)CC3=O)cc1 (stereo not given), which Potency is on record?
Answer: inconclusive: 39.8 µM [inhibitor, single point]

Question: COc1c2c(c(C)c3c1C(=O)OC3)O[C@@]1(C)CC[C@@]3(O)C(C)(C)OC(=O)CC[C@]3(C)[C@H]1C2 was tested. Which Potency did it give?
Answer: inconclusive: 39.8 µM [inhibitor, single point]

Question: With CC(C)N(C=O)C1(C(=O)NC2CCCCC2)CCCCC1 as the compound, how does the Potency read?
Answer: inconclusive: 0.0013 µM [inhibitor]

Question: How did the Potency turn out when COc1ccc(NC(=O)CSc2nc(NS(=O)(=O)c3ccc(C)cc3)cc(=O)[nH]2)cc1 was run?
Answer: inconclusive: 35.5 µM [inhibitor, single point]

Question: For CCOC(=O)Cc1csc(NC(=O)c2c(-c3c(Cl)cccc3Cl)noc2C)n1, which Potency is on record?
Answer: inconclusive: 0.501 µM [inhibitor, full curve, poor fit]

Question: For O=C(Cc1c(F)cccc1Cl)NCCc1c[nH]c2ccccc12, which Potency is on record?
Answer: inconclusive: 42.3 µM [inhibitor, single point]

Question: With CCc1nn2c(=O)cc(COc3ccc(/C=C4\C(=N)N5N=C(CC(C)C)SC5=NC4=O)cc3)nc2s1 as the compound, how does the Potency read?
Answer: inconclusive: 12.6 µM [inhibitor, single point]

Question: O=c1cc(-c2ccc(F)cc2F)[nH]c2ccc(F)cc12 was tested. Which Potency did it give?
Answer: inconclusive: 70.8 µM [inhibitor, partial curve, poor fit]

Question: With CC(/C=C/c1ccc2c(c1)OCO2)=N\NC(=O)COc1ccccc1C as the compound, how does the Potency read?
Answer: inconclusive: 3.98 µM [inhibitor, single point]

Question: For O=C(COc1ccc2ccccc2c1)NNC(=O)Nc1ccc(F)cc1F, which Potency is on record?
Answer: inconclusive: 4.74 µM [inhibitor, single point]

Question: For CCOc1ccccc1NC(=O)NCc1ccccc1F, which Potency is on record?
Answer: inconclusive: 0.199 µM [inhibitor, full curve, poor fit]

Question: For O=C(O)c1ccc(CSc2nnc(COc3ccccc3)o2)cc1, which Potency is on record?
Answer: inconclusive: 0.251 µM [inhibitor, full curve, poor fit]

Question: Which Potency does the source give for COc1ccc(-c2nn(-c3ccccc3)cc2/C=N/Nc2cccc(C(=O)O)c2)cc1 here?
Answer: inconclusive: 5.01 µM [inhibitor, single point]

Question: How did the “activity change, negative = inhibition” value turn out when CCN(CC)C(=O)c1cccc(NC(=O)CCc2nc3sc4c(c3c(=O)[nH]2)CCCC4)c1 was run?
Answer: inactive: -16.7%

Question: With CC(C)(Oc1ccc(Cl)cc1)C(=O)NCc1ccc(S(N)(=O)=O)cc1 as the compound, how does the Potency read?
Answer: inconclusive: 25.1 µM [inhibitor, partial curve]

Question: Which Potency does the source give for COc1ccc(C(CC(=O)N2CCOCC2)c2c(OC)cc(OC)c3c(-c4ccccc4)cc(=O)oc23)cc1 (stereo not given) here?
Answer: active: 31.6 µM

Question: How did the “activity change, negative = inhibition” value turn out when O=C(O)CSc1cccc[n+]1[O-] was run?
Answer: inactive: 6.42%

Question: With COC(=O)[C@@H]1C[C@H]1[C@@H](NS(=O)(=O)c1ccccc1)c1ccccc1 as the compound, how does the Potency read?
Answer: inconclusive: 3.98 µM [inhibitor, single point]

Question: How did the “activity change, negative = inhibition” value turn out when CCOC(=O)C1=C(C)NC(=O)NC1c1ccc(Br)o1 (stereo not given) was run?
Answer: inactive: -2.88%

Question: COc1cc(NS(=O)(=O)c2ccc(NC(=S)NC(=O)/C=C/c3ccco3)cc2)ncn1 was tested. Which Potency did it give?
Answer: inconclusive: 39.8 µM [inhibitor, single point]

Question: With O=C(/C=C/c1ccccc1)N1CCC(c2ccccc2)C1 (stereo not given) as the compound, how does the “activity change, negative = inhibition” value read?
Answer: inactive: -5.16%

Question: How did the Potency turn out when COC(=O)c1cc2cc(NS(=O)(=O)c3ccc(C)cc3)ccc2s1 was run?
Answer: inconclusive: 31.6 µM [inhibitor, single point]
